Laboratory results as given in PMC10015075.
Results are given in words; binding and its absence hold for the method and conditions named. In cells and extracts the contact can be indirect. Some binding calls cover weakened binding; strength is not graded here.

The chains behind the UniProt entries cited, without tags or fusion partners.
UniProt Q9NRC8: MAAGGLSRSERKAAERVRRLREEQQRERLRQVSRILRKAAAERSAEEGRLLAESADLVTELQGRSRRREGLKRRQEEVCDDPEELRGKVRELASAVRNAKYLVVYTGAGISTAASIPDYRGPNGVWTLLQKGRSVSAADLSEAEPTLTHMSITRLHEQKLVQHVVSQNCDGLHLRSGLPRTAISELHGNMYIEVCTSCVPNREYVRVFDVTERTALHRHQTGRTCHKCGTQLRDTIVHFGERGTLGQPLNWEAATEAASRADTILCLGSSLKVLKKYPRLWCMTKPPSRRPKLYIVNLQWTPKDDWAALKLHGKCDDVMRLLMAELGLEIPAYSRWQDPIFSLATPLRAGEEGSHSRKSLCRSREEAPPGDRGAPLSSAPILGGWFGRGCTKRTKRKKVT
UniProt Q13485: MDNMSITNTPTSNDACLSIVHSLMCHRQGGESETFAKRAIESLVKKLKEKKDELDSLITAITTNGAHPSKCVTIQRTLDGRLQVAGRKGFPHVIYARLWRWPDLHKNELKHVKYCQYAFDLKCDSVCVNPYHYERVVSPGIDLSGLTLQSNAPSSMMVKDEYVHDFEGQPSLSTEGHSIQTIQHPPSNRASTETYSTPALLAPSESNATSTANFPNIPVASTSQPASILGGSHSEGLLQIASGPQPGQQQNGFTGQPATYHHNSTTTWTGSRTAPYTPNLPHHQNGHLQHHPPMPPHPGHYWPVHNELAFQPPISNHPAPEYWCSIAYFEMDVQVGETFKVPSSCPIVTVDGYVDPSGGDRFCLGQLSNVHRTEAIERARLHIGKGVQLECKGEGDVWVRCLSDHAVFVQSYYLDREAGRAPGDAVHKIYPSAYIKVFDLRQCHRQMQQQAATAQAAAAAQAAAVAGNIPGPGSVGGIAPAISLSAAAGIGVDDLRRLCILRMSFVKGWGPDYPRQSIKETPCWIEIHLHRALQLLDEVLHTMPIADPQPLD

Target: His-tagged SIRT7 (UniProt Q9NRC8)
Test: co-IP; A2058 cell lysate in ice-cold RIPA buffer with PMSF; primary antibody or control IgG 1 h at 4 °C, Protein A/G PLUS-Agarose overnight at 4 °C, washed 4 times with ice-cold PBS; immunoblot; His-tagged SIRT7 and endogenous SMAD4, cells with indicated treatment

binding: binds
Substance: endogenous SMAD4 (from UniProt Q13485 1-552)
